Publication PMC4920147
Results are given in words; binding and its absence hold for the method and conditions named. Some entries that bind do so weakly or less than the wild type.

T1: RelA (mouse (endogenous in E11)), Q04207
T1 chain: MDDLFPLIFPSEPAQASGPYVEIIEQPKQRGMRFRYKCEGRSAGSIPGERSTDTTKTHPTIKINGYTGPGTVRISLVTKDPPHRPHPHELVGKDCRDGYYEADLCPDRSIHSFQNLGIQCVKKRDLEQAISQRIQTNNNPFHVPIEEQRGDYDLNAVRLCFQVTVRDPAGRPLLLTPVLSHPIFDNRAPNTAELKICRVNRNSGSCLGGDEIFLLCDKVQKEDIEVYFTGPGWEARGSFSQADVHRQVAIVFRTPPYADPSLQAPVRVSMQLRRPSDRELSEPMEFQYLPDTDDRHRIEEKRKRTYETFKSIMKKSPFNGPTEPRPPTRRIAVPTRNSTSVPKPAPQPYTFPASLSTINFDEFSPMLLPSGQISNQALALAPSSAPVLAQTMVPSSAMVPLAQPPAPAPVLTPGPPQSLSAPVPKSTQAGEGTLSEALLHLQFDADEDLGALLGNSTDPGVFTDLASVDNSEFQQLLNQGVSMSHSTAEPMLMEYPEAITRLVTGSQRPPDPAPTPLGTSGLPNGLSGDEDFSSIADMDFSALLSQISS


Columns and labels:
[1] = biological target: RelA (mouse (endogenous in E11)) (UniProt Q04207); assay: native gel or EMSA; supershift: nuclear extracts of TNFα-treated E11 podocytes incubated with antibodies against RelA, p50 or p52 prior to addition of radiolabelled κB DNA probe (HIV LTR or CD80 promoter)
[2] = biological target: T1, RelA (mouse (endogenous in E11)), Q04207; assay: as above; settings: remark: other sources report otherwise

binding [1] | binding [2] | Binder
binds | – | p52 (protein, UniProt Q9WTK5 1-454) MDNCYDPGLDGIPEYDDFEFSPSIVEPKDPAPETADGPYLVIVEQPKQRGFRFRYGCEGPSHGGLPGASSEKGRKTYPTVKICNYEGPAKIEVDLVTHSDPPRAHAHSLVGKQCSELGVCAVSVGPKDMTAQFNNLGVLHVTKKNMMEIMIQKLQRQRLRSKPQGLTEAERRELEQEAKELKKVMDLSIVRLRFSAFLRASDGSFSLPLKPVISQPIHDSKSPGASNLKISRMDKTAGSVRGGDEVYLLCDKVQKDDIEVRFYEDDENGWQAFGDFSPTDVHKQYAIVFRTPPYHKMKIERPVTVFLQLKRKRGGDVSDSKQFTYYPLVEDKEEVQRKRRKALPTFSQPFGGGSHMGGGSGGSAGGYGGAGGGGSLGFFSSSLAYNPYQSGAAPMGCYPGGGGGAQMAGSRRDTDAGEGAEEPRTPPEAPQGEPQALDTLQRAREYNARLFGLA
– | binds | p50, P25799 1-431 (protein) MADDDPYGTGQMFHLNTALTHSIFNAELYSPEIPLSTDGPYLQILEQPKQRGFRFRYVCEGPSHGGLPGASSEKNKKSYPQVKICNYVGPAKVIVQLVTNGKNIHLHAHSLVGKHCEDGVCTVTAGPKDMVVGFANLGILHVTKKKVFETLEARMTEACIRGYNPGLLVHSDLAYLQAEGGGDRQLTDREKEIIRQAAVQQTKEMDLSVVRLMFTAFLPDSTGSFTRRLEPVVSDAIYDSKAPNASNLKIVRMDRTAGCVTGGEEIYLLCDKVQKDDIQIRFYEEEENGGVWEGFGDFSPTDVHRQFAIVFKTPKYKDVNITKPASVFVQLRRKSDLETSEPKPFLYYPEIKDKEEVQRKRQKLMPNFSDSFGGGSGAGAGGGGMFGSGGGGGSTGSPGPGYGYSNYGFPPYGGITFHPGVTKSNAGVTHG
